Measured values from US20220168309A1 (F-STAR THERAPEUTICS, INC., priority 2019, published 2022).
Structures were worked out from names or drawings and are uncertain.

Amino acid sequences for entries named in this document (tags omitted).
UniProt Q86WV6, whole entry: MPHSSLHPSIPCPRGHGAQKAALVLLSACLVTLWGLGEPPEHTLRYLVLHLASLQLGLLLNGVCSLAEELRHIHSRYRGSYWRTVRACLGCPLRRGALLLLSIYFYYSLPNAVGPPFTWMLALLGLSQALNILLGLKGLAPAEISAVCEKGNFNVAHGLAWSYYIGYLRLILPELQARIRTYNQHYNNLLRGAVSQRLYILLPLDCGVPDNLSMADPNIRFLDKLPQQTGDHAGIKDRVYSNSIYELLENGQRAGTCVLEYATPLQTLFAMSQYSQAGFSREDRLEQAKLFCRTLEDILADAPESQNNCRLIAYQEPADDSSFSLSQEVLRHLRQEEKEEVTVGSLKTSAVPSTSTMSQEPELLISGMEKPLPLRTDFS

Biological target: STING (Homo sapiens, UniProt Q86WV6)
Experiment: STING antagonist activity, cell-based ISG54 promoter-reporter luciferase measurement of IRF activity (THP-1 dual / RAW-ISG cells)
Settings: Antagonist Activity of Exemplary Compounds; cell line and agonist not given
Protocol: THP-1 dual cells (InvivoGen) were cultured under 5% CO2 at 37° C. in RPMI containing 10% fetal bovine serum (FBS), 100 IU mL-1 penicillin and 100 μg mL-1 streptomycin. RAW-ISG cells (InvivoGen) were cultured under 5% CO2 at 37° C. in DMEM containing 10% fetal bovine serum (FBS), 100 IU mL-1 penicillin and 100 μg mL-1 streptomycin. THP-1 dual cells were seeded into the 96 well assay plate on the day of assay whereas RAW cells were seeded into the 96 well assay plate 18 hours before the assay.
(§1) 50,000 cells seeded in a 96-well flat bottom white assay plate were treated with different concentrations (10 uM to 0.01 uM) of compounds for 1 h followed by STING induction with either 30 nM SB 11285 or 10 ug/mL 2′-3′ cGAMP. […] The % inhibition was calculated as 100−{[(luminescence of COI treated well/luminescence of non-COI treated well)/100]×100}. IC50 was calculated by plotting in Xlfit.
as §1, with “1 μM” for “30 nM”, “Xlfit. […]” for “Xlfit.”

Row | SMILES | IC50 [µM]
1 | COC(=O)CCCCCCCCCCCCCCCn1c(C)nc2nc(Cl)nc(SC)c21 | 10 to 20
2 | CCCCCCCCCCCCCCCCn1c(C)nc2nc(Cl)nc(N)c21 | 0.001 to 1
